{"source": "PubChem BioAssay AID1347423", "about": "(Functional Genomics Laboratory (NCATS/FGL), 2020)", "note": "Screen size: about 52,000 sequences; about 210 (0.4%) were called active.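 Rule for the calls: active = gene whose silencing raises cell survival under the drug, median off-target-corrected z-score across its silencing RNAs 2 or more; inactive = the rest.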 Some of the results follow."}
{"assay": "Resistance to Poly (ADP-Ribose) Polymerase inhibitor: Gene Identification via Genome-wide siRNA Screen", "conditions": "mouse BRCA2 R2336H ES cells, olaparib, CellTiter-Glo viability; stronger effect = higher value", "procedure,_shortened": "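Genome-wide siRNA screen (3 siRNAs/gene, 20 nM) in mouse ES cells carrying hypomorphic BRCA2 R2336H; olaparib 500 nM added 48 h post-transfection, CellTiter-Glo viability 72 h later. Normalized to plate-median negative control; MAD z-scores, gene median, seed-adjusted.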"}
{"sequence": "GCACAGCGGUAAACAAAAUTT against Ywhaz", "z-score": "inactive: 2.27"}
{"sequence": "GGACACAAGAGGCCAAUAATT against 4921511C16", "z-score": "inactive: -0.974"}
{"sequence": "GGGAUUCUCAGGUCACUGUTT against Pvrl4", "z-score": "inactive: -1.06"}
{"sequence": "GGUUGACAUGAGUAACAUATT against Dlst", "z-score": "inactive: -0.0116"}
{"sequence": "GGAAACUUUAGCAUGAAUGTT against Hmgb2l1", "z-score": "inactive: 1.83"}
{"sequence": "GCAGAGGAGUGAAUAGAUATT against Dtx3l", "z-score": "inactive: 0.293"}
{"sequence": "GGAUUUCAAAUCCUUCCUGTT against Shmt2", "z-score": "inactive: -0.519"}
{"sequence": "GGACAUUGCCCACAUGACCTT against A030009H04Rik", "z-score": "inactive: 1.17"}
{"sequence": "GGUUUAAGGUAGUUCAUGATT against Faf1", "z-score": "inactive: -1.18"}
{"sequence": "CCAGUGAUUAUCUUUAAUGTT against Gm610", "z-score": "inactive: 1.92"}
{"sequence": "GCGAGAAAAACGAUUCAGCTT against Spnb3", "z-score": "inactive: -0.266"}
{"sequence": "GGGUUGUCUUCAUCUACUUTT against Crhr1", "z-score": "inactive: -0.222"}
{"sequence": "GGUAGUUUCUGGACAAAAGTT against C330027C09Rik", "z-score": "inactive: -0.691"}
{"sequence": "GGCCCAGAAGAUGAUGAGATT against Kcne1l", "z-score": "inactive: -0.291"}
{"sequence": "GCAUACCAAUCACAGUCGATT against 4933404O11Rik", "z-score": "inactive: -0.187"}
{"sequence": "GCUGAAGUUACCAUAACCCTT against Cd84", "z-score": "inactive: 1.08"}
{"sequence": "GCAGAGGACCAUUAAUUUATT against Ly78", "z-score": "inactive: -0.642"}
{"sequence": "GGACUGAGAAAAUGUAUAUTT against Nek3", "z-score": "inactive: 2.42"}
{"sequence": "GGAUUAGUGCAGGAAUCAATT against Rel", "z-score": "inactive: 1.57"}
{"sequence": "GCGGAAUGUACCAAGACGATT against Apoh", "z-score": "inactive: 0.486"}
{"sequence": "GGAGAUCGACGAAUACAUCTT against BC020184", "z-score": "inactive: 0.224"}
{"sequence": "GGCCAUUGCUCAAUGGAAGTT against Gm605", "z-score": "inactive: 0.761"}
{"sequence": "CCAUACAGAGGUGACAGUUTT against Olfr816", "z-score": "inactive: -0.513"}
{"sequence": "GGAAGACGAUGACCUAAACTT against C1sb", "z-score": "inactive: 0.439"}
{"sequence": "CCAUUUCAAGCUCGAUAUGTT against Pde7b", "z-score": "inactive: -0.508"}
{"sequence": "GGAGAGACAGCAGUGAACATT against Dvl2", "z-score": "inactive: 0.775"}
{"sequence": "GGCCAUCUUCCGAUUCUCUTT against Scn4a", "z-score": "inactive: 0.398"}
{"sequence": "GGAAGAGGACUGCUUAUCCTT against BC023179", "z-score": "inactive: -1.08"}
{"sequence": "CCGGAAACUUCCUACGUGUTT against Cbln1", "z-score": "inactive: 0.00316"}
{"sequence": "GCGCAUCCUAUUUUGAGAATT against Snx6", "z-score": "inactive: -0.776"}
{"sequence": "CCAAGUACAUACUUCUCAUTT against Tbx4", "z-score": "inactive: 0.0734"}
{"sequence": "GCUAUUGGAGGAAUGUAUCTT against Rasgrp4", "z-score": "inactive: -0.103"}
{"sequence": "GCUGGAAUAUCAUUUCCCATT against Pdpk1", "z-score": "inactive: 0.77"}
{"sequence": "GGAAUUCAUGACCUUUACATT against 0610042I15Rik", "z-score": "inactive: -1.85"}
{"sequence": "CCGAGGACUACAAGGUAUATT against 1810017G16Rik", "z-score": "inactive: -0.434"}
{"sequence": "CCUGUUUUUGCUACAUAGATT against 2810432O22Rik", "z-score": "inactive: 0.859"}
{"sequence": "GAUGGGACAGUAAAACAAATT against Klra3", "z-score": "inactive: -0.0602"}
{"sequence": "GCACGCGCACCUACAAAAUTT against Sostdc1", "z-score": "inactive: 0.362"}
{"sequence": "GCUAGGGAUUUACCUCUUCTT against Gpr65", "z-score": "inactive: 2.19"}
{"sequence": "GUUGCCAGAUUUGGAUAUUTT against Abcg5", "z-score": "inactive: -0.32"}
{"sequence": "GGACUUCAAGUACGUGCUGTT against P2ry2", "z-score": "inactive: 1.98"}
{"sequence": "GGAUCUUUACUGCUUUGUGTT against Picalm", "z-score": "inactive: 0.738"}
{"sequence": "GGGCCACAAGCCUUCUAUUTT against Acvr2b", "z-score": "inactive: 0.855"}
{"sequence": "CGCAGAACGUGAACACCAATT against Smad3", "z-score": "inactive: -0.133"}
{"sequence": "GGUACAAAAUGGCUUGUUGTT against A930001M12Rik", "z-score": "inactive: 1.15"}
{"sequence": "CAGUGAUCGUCAUAGCCAUTT against Olfr478", "z-score": "inactive: 0.16"}
{"sequence": "GGUAACGGGACCAACACUUTT against Otop3", "z-score": "inactive: -0.45"}
{"sequence": "GCCUUUAUAGGAUUUCAAATT against Ppp2r5e", "z-score": "inactive: 0.442"}
{"sequence": "GGUCCAAGAAGACAAUGCUTT against Cga", "z-score": "inactive: 0.976"}
{"sequence": "CCGGUUCACUGCUUGACCUTT against Wbp1", "z-score": "inactive: 0.529"}
{"sequence": "GGACACCUCAUGAAGUAAUTT against Sav1", "z-score": "inactive: 0.356"}
{"sequence": "GCCUUGGAUGAAAAGGUAATT against E130120L08Rik", "z-score": "inactive: -1.14"}
{"sequence": "CCUUCAUUCUCAUGUGACCTT against Psat1", "z-score": "inactive: -0.472"}
{"sequence": "GGAGAAGAUGAAGUUGAAGTT against Cpsf5", "z-score": "inactive: -0.36"}
{"sequence": "CGAGUACAGUGGUUUGUCATT against Orc1l", "z-score": "inactive: -1"}
{"sequence": "CCAGACUUAUGACAACAAATT against Colec12", "z-score": "inactive: 1.23"}
{"sequence": "GGAAAAGUUCUUAAAGCUGTT against 5330408M12Rik", "z-score": "inactive: -1.28"}
{"sequence": "CGGGCUAUAUUACCUUGGCTT against Phf19", "z-score": "inactive: 0.513"}
{"sequence": "CCUUAGUAACAGCACUAGCTT against Lrfn2", "z-score": "inactive: -0.681"}
{"sequence": "GGAGUUUAUCUUCAAGCAGTT against Tcp11", "z-score": "inactive: 0.86"}
{"sequence": "CCUAUUCUAUGAUGCACCCTT against Cyp2f2", "z-score": "inactive: 0.494"}
{"sequence": "GGUCGAGCAGAGUUGAAUCTT against Tars", "z-score": "inactive: -1.51"}
{"sequence": "GGUUCUUGAUGAAAAUCUATT against Acox1", "z-score": "inactive: -0.412"}
{"sequence": "GCUCGAACAUAGCAGCAAGTT against 1700003E24Rik", "z-score": "inactive: 2.51"}
{"sequence": "CCUUUAUCUUGGGAAUUGGTT against Pik3ca", "z-score": "inactive: 1.37"}
{"sequence": "CCCUCCACUCCGUUUUUAUTT against Stim2", "z-score": "inactive: -0.919"}
{"sequence": "GGUCACCUCUGCUAACAUCTT against U46068", "z-score": "inactive: 1.35"}
{"sequence": "GCUCUUGUAUGUUCUGCUGTT against C330014O21Rik", "z-score": "inactive: 0.372"}
{"sequence": "CCUGAUAGGACCUAAUUGATT against Tom1", "z-score": "inactive: 0.856"}
{"sequence": "GGAUGAGGUGAACUGAGGGTT against BC022651", "z-score": "inactive: 1.06"}
{"sequence": "GGUGAAAGUUACGUGUGUGTT against 6330415M09Rik", "z-score": "inactive: 0.428"}
{"sequence": "GCUCAUGAUCAUAUCAUGATT against 1810055G02Rik", "z-score": "inactive: 1.14"}
{"sequence": "GGAAGAAAUACAGAAUAACTT against Npr3", "z-score": "inactive: 0.683"}
{"sequence": "GGCUUUACGUGACAAAGAUTT against 4933430I17Rik", "z-score": "inactive: 2.13"}
{"sequence": "GGAAUACAAACUGCUGUACTT against 2010005J08Rik", "z-score": "inactive: 1.76"}
{"sequence": "GGUAGUCAGGGCUGACUUATT against 5730449L18Rik", "z-score": "inactive: -0.895"}
{"sequence": "GGAUGACCUUACCAGACACTT against BC003281", "z-score": "inactive: 1.88"}
{"sequence": "GGGUCUCAAACUAAAUACUTT against Rangap1", "z-score": "inactive: -1.44"}
{"sequence": "GGUCAUGCUGAUCAGCGACTT against 2700050P07Rik", "z-score": "inactive: 1.39"}
{"sequence": "GGCAGAAAGAUUAUGAGUUTT against Gpr171", "z-score": "inactive: 2.26"}
{"sequence": "GCGGUAAGAACGUGGAACUTT against 4732473B16Rik", "z-score": "inactive: 0.341"}
{"sequence": "GCAAUGAGUGCUAGUUUUUTT against Cdc42", "z-score": "inactive: 0.0951"}
{"sequence": "GCCAUCAAUGAUGUGCUCUTT against Zswim5", "z-score": "inactive: -2.51"}
{"sequence": "GGUCCAAAAAUGCAAAGAATT against A430081C19Rik", "z-score": "inactive: -0.162"}
{"sequence": "GGCACUUCAAAAAAAGAAUTT against Iigp2", "z-score": "inactive: -0.519"}
{"sequence": "GGAACCAGUAUCCUGACAUTT against Prop1", "z-score": "inactive: 0.288"}
{"sequence": "GGAGAAGCUCAUCUCUCUGTT against Rfx2", "z-score": "inactive: -1.61"}
{"sequence": "CGAAAACUUCAUAGCUACATT against Hmg20a", "z-score": "inactive: -0.199"}
{"sequence": "GGCAACAGUACCAAAGACATT against Rps24", "z-score": "inactive: -3.35"}
{"sequence": "GCCCUGGCAAAAGAUACCATT against Cidec", "z-score": "inactive: -0.0327"}
{"sequence": "GGAUUUAGGCUACUUUUUCTT against Art4", "z-score": "inactive: 0.0571"}
{"sequence": "GGAUGCUACGUUCUGCUAGTT against Bcat2", "z-score": "inactive: -0.76"}
{"sequence": "GGCAGUAUUGACUCCUACCTT against 6430548M08Rik", "z-score": "inactive: 2"}
{"sequence": "CCAUCUCGAUUUGUAUAAUTT against 2010002A20Rik", "z-score": "inactive: -0.557"}
{"sequence": "CCUAUAUUACACGUCAUUUTT against Trim30", "z-score": "inactive: 2.04"}
{"sequence": "GCUGCUUUGGCAACUUUCATT against Lix1", "z-score": "inactive: -1.2"}
{"sequence": "GGAAUUAAAUGAACCCAGATT against 3110043J09Rik", "z-score": "inactive: 0.395"}
{"sequence": "CCUAUUACUCAAACACAGATT against Arl8", "z-score": "inactive: 1.01"}
{"sequence": "CGUUAGCUGUUAUGAUCUATT against Cept1", "z-score": "inactive: -1.84"}
{"sequence": "GGCCUCAGAUAUAGGUCUCTT against Cln6", "z-score": "inactive: 0.597"}
{"sequence": "GGUCUACAAUGUGCGCACUTT against 6720458F09Rik", "z-score": "inactive: -0.703"}
{"sequence": "GCGUGUGCUAAUGAAAAUGTT against Fxr1h", "z-score": "inactive: -0.15"}
{"sequence": "GGAAGAAUCUGUUACUUUUTT against Rad1", "z-score": "inactive: -2.46"}
{"sequence": "GGAGCUGACAGAGAGAUUCTT against 5530600A18Rik", "z-score": "inactive: -3.1"}
